At least one structure is not confirmed: it was looked up by name or label, or the drawing left a doubt.
Test: Solvolytic defluoridation of fluoridated organotrifluoroborates by 19F-NMR
Assay type: physicochemical
Details: 200 mM phosphate buffer pH 7.5, 19F NMR, pseudo-first-order fit
Description: The following is are representative examples of testing of solvolytic defluoridation of fluoridated organoborates as shown in FIG. 1A to FIG. 1FF and Table 1. Solutions of the fluoridated organotrifluoroborates were made by dissolving 30 mg of the fluoridated organotrifluoroborate into 1 mL of 20% ethanol/acetonitrile.
As the fluoridated organotrifluoroborate salts were often contaminated with a significant amount of free fluoride, a silica column was used to remove the free fluoride from the organotrifluoroborate solution. After loading the crude reaction onto the silica column, the fractions containing the desired organotrifluoroborate were eluted and combined to form a combined solution. […] Solvolytic defluoridation started immediately upon dissolution of the fluoridated organotrifluoroborate salt into phosphate buffer, and accordingly, the time was recorded at the moment of dissolution. The progress of solvolytic defluoridation of the fluoridated organotrifluoroborate salt was monitored using ^19F NMR spectroscopy. […]
The time curves shown in FIGS. 1B and 1D were fitted and a rate constant, ksolvolysis, for each time curve was calculated. As a measure of the stability of the fluoridated organoborate to solvolytic defluoridation, pkB—F values were calculated using the equation pkB—F=−log(ksolvolysis). […]

O=C(c1ccccc1)[B-](F)(F)F [Compound 8, benzoytrifluoroborate]
k(solvolysis): 8.52 × 10−5 min − 1
